Measured values taken from PMC11878764, “MaEIL4-MaMADS36-MaACS7 module transcriptionally regulates ethylene biosynthesis during banana fruit ripening”.

System: GST-MaEIL4 (Musa spp. (banana))
Test: EMSA
Settings: EMSA according to Liu et al. [22]; recombinant protein; protein details: GST (pGEX-4T-1)

“CTTTGAA (double strand) [MaMADS36 promoter TGAA probe]”: binds.

The exact form of at least one protein or probe is not confirmed.
